PubChem BioAssay AID1508588 – Peter MacCallum Cancer Centre – 2020
Screen: 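Genome-wide search for knock-downs that heighten vemurafenib action in melanoma cells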 (primary screen). Cell system: human WM266.4 melanoma cells (BRAF V600 mutant). Reagents: siRNA pool against human genes, 40 nM. Timing: 96 h from transfection to read-out. Conditions: vemurafenib 300 nM (about IC25), added 48 h after transfection, for 48 h; comparison arm got DMSO vehicle only. Measured: 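Ratios to non-targeting siRNA for cell gain, counted as DAPI nuclei after minus before drug and averaged over two replicates, and for absorbance-read medium lactate per cell; both binned into fold-change classes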. Scale: cell gain with vemurafenib: higher = more cell gain than with non-targeting siRNA; lactate per cell with vemurafenib: higher = more lactate made per cell. Active means: 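a knock-down counts as enhancing when its fold-change classes with vehicle and with vemurafenib, taken together, show a stronger drug effect on cell gain or lactate per cell; exact class pairs not stated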. Meaning of the calls: active = enhances vemurafenib effect; inactive = no enhancement seen.
In all, the deposit lists about 18,000 reagents; this is an unselected part. Over the whole deposit, 790 (4.4%) got an active call. 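Calls rest on a combination of fold-change classes in drug and vehicle arms, not all shown here.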 A number with no mark means an inactive call. A reagent listed more than once was tested more than once; the source does not tell the runs apart.

gene	cell gain with vemurafenib	lactate per cell with vemurafenib
LRRC37A3 (GeneID 374819)	0.8	0.86
CELA3B (GeneID 23436)	0.72	0.72
SPRTN (GeneID 83932)	0.42	2.08
BEX1 (GeneID 55859)	1.04	0.69
TMPRSS4 (GeneID 56649)	0.57	1.01
PRX (GeneID 57716)	0.57	0.4
GALNT18 (GeneID 374378)	0.56	1.56
AP5Z1 (GeneID 9907)	0.81	0.96
HCN1 (GeneID 348980)	0.5	0.76
RSF1 (GeneID 51773)	0.49	1.3
SUPT20H (GeneID 55578)	0.05	2.17
POM121L12 (GeneID 285877)	0.31 (active)	-0.08
TCEA2 (GeneID 6919)	0.79	1.06
PWWP3B (GeneID 139221)	0.49	1.22
PKP2 (GeneID 5318)	0.86	0.68
LIN52 (GeneID 91750)	0.22	0.83
CPLX2 (GeneID 10814)	0.48	1.15
UBOX5 (GeneID 22888)	0.72	0.43
HELZ (GeneID 9931)	0.25	0.66
NELFE (GeneID 7936)	0.65	0.38
FBF1 (GeneID 85302)	0.99	1.04
SPATA9 (GeneID 83890)	0.51	0.33
PCARE (GeneID 388939)	0.49	2.5
ZNF764 (GeneID 92595)	0.63	1.04
POLR2C (GeneID 5432)	0.02	1.53
RNF185 (GeneID 91445)	0.95	0.7
TBX20 (GeneID 57057)	0.35	2.36
LRRD1 (GeneID 401387)	0.69	0.72
MALT1 (GeneID 10892)	0.44	0.94
LIN7C (GeneID 55327)	1.07	1.27
THBS1 (GeneID 7057)	0.3	2.03
N4BP2L1 (GeneID 90634)	0.88	0.8
RP1L1 (GeneID 94137)	0.79	0.08
EXOC3L1 (GeneID 283849)	0.6	1.23
BSG (GeneID 682)	0.53	0.63
GIPC3 (GeneID 126326)	0.55	1.26
VWA3B (GeneID 200403)	0.77	0.66
APOL4 (GeneID 80832)	0.63	1.27
ZMYM4 (GeneID 9202)	0.77	0.46
OR1L4 (GeneID 254973)	0.12	1.6
EIF3I (GeneID 8668)	0.11	1.38
PGLYRP4 (GeneID 57115)	0.68	0.84
P3H2 (GeneID 55214)	0.41 (active)	0.7
NOX5 (GeneID 79400)	0.79	0.78
NOX5 (GeneID 79400)	0.87	1.07
PDK2 (GeneID 5164)	0.55	0.97
RIC3 (GeneID 79608)	0.71	0.96
MAP3K9 (GeneID 4293)	0.3	0.78
SEC22A (GeneID 26984)	0.6	0.78
TMEM41B (GeneID 440026)	0.5	1.18
ZNF550 (GeneID 162972)	0.28	1.26
GPR137 (GeneID 56834)	0.85	0.55
RNASE1 (GeneID 6035)	1.29	0.75
GPR179 (GeneID 440435)	0.7	1.28
WDR35 (GeneID 57539)	0.42	0.76
SERINC5 (GeneID 256987)	0.46 (active)	0.41
RSPH3 (GeneID 83861)	0.72	0.62
NHERF4 (GeneID 79849)	1.11	0.69
POU2F2 (GeneID 5452)	0.71	0.62
NSMF (GeneID 26012)	1.28	0.68
GALP (GeneID 85569)	0.69	0.76
SLC22A3 (GeneID 6581)	0.27	1.06
CASZ1 (GeneID 54897)	0.85	1.15
GUCY1B1 (GeneID 2983)	1.29	0.7
PDLIM2 (GeneID 64236)	0.9	0.78
ZFP36 (GeneID 7538)	0.56 (active)	0.46
HAUS4 (GeneID 54930)	0.59	1.1
PTPRB (GeneID 5787)	0.63	0.88
SRCIN1 (GeneID 80725)	0.32	1.27
SYNGR4 (GeneID 23546)	0.14	0.98
ANKRD36B (GeneID 57730)	1.01	0.76
IMPA2 (GeneID 3613)	0.48	1.75
TFAP4 (GeneID 7023)	0.67	0.98
GIP (GeneID 2695)	0.61	0.72
OR4S1 (GeneID 256148)	0.8	0.57
FAM161B (GeneID 145483)	0.34	1.12
CASP5 (GeneID 838)	0.46	0.77
TMEM184A (GeneID 202915)	0.57 (active)	0.31
TNFSF8 (GeneID 944)	0.31	1.31
SCGB3A2 (GeneID 117156)	0.7	0.43
PROSER1 (GeneID 80209)	-0.16	1.88
TRIM63 (GeneID 84676)	1.11	0.73
CD36 (GeneID 948)	0.39	0.82
HS3ST4 (GeneID 9951)	0.26	1.17
